Measured values: PubChem BioAssay AID588590 (National Center for Advancing Translational Sciences (NCATS), 2011)
“And” between values parts separate entries of the source, which are not always exact repeats. Identical values can stand only once. In all, about 390,000 compounds went through this assay and about 4,000 (1%) were called active. The shares of active, inactive and inconclusive entries below differ from those in the screen. Calls follow the shape of the dose curve; as a rule, active = well fitted inhibition curve with a large enough effect; inconclusive = small, poorly fitted or top-dose-only effect, or another doubt; inactive = no such curve, though single readings can be large or run the other way. Potencies of inconclusive entries are doubtful fits and often do not repeat.

Sequences of proteins named here, by UniProt entry; tags and fusion partners are left off. A change or cut given only in a name is not applied to a line headed by its entry.
UniProt Q9UNA4: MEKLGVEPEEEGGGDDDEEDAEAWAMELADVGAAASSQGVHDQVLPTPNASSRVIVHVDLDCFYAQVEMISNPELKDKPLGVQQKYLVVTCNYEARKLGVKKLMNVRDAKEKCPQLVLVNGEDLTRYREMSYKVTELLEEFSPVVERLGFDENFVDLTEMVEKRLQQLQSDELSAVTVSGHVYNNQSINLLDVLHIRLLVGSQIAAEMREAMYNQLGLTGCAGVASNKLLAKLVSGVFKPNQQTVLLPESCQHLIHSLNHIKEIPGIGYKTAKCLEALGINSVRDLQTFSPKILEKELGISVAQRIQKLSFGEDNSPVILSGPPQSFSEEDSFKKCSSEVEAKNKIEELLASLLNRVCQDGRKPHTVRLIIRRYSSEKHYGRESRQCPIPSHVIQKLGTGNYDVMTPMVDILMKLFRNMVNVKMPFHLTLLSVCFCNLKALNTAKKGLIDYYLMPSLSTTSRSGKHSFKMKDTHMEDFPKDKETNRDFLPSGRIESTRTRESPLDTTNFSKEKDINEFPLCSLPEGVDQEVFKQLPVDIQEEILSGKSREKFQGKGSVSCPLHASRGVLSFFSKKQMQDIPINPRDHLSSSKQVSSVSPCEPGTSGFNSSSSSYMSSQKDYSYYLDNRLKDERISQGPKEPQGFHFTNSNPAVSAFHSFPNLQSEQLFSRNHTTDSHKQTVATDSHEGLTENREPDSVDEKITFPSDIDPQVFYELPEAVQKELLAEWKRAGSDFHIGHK

These compounds were tested against DNA polymerase iota (Homo sapiens) (UniProt Q9UNA4) (assay: qHTS for Inhibitors of Polymerase Iota). Settings: Pol iota fluorescent replication assay, 10 min; series mostly up to 115 µM; activity, negative = inhibition: at the top concentration.
Outline: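 Fluorescent replication assay read twice, at 0 min and 10 min after adding 50 nM (final) substrate. Enzyme (10 nM) and compounds were first incubated 15 min at room temperature; enzyme-free buffer wells were negative controls.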
Potency is read from the fitted curve at half-maximal effect.

Structure (SMILES)	activity, negative = inhibition	Potency
C=CCn1c(SCC(=O)N2CCOCC2)nc2c([nH]c3ccccc32)c1=O	inactive: 23.8%	
CC(=O)Nc1ccc(/C=C/c2sc3ccccc3[n+]2CCCCI)cc1		active: 79.4 µM
COc1ccc(NC(C)=O)c([N+](=O)[O-])c1[N+](=O)[O-]	inactive: 40.1%	
COc1ccc(NC(=O)CN(C)S(=O)(=O)c2ccc3c(c2)NC(=O)CS3)cc1		inconclusive: 31.6 µM [inhibitor, partial curve]
C#CCOCCOCCOCCNc1nc(N2CCN(C(=O)CCCCCCCCCCNC(=O)[C@@H](CCSC)n3cc(CCO)nn3)CC2)nc(N2CCN(C(=O)CCCCCCCCCCNC(=O)[C@H](CCCN=C(N)N)n3cc(C[C@@H](C)CC)nn3)CC2)n1		inconclusive: 39.8 µM [inhibitor, single point]
O=c1c(C/C=C/c2ccccc2)c(O)nc2n1CCCS2		inconclusive: 2.24 µM [inhibitor, full curve, poor fit]
O=C(NCc1ccco1)c1ccc(COc2ccccc2[N+](=O)[O-])o1	inactive: 27.9%	
CCn1c(SC(C)C(=O)O)nc2sc3c(c2c1=O)CCC3 (stereo unspecified)		inconclusive: 112 µM [inhibitor, partial curve, poor fit]
Cc1nccn1CC(O)COC1CCCCC1 (stereo unspecified)		inconclusive: 25.1 µM [inhibitor, partial curve]
CCc1ccccc1NC(=O)c1ccc2nc(N3CCOCC3)sc2c1		inconclusive: 3.16 µM [inhibitor, partial curve, poor fit]
N#Cc1ccccc1NC(=O)CSc1n[nH]c(-c2ccco2)n1		inconclusive: 28.2 µM [inhibitor, partial curve, poor fit]
Cc1ccccc1Nc1c(-c2c(F)cccc2Cl)nc2ccc(Br)cn12	inactive: 8.32%	
Cc1ccnc(NC(=O)c2ccc(S(=O)(=O)N3CCC(C)CC3)cc2)c1		inconclusive: 100 µM [inhibitor, partial curve, poor fit]
COc1ccc(NS(=O)(=O)c2cc(NC(=O)COc3ccccc3)ccc2N2CCOCC2)cc1	inactive: -2.99%	
CC(=O)N1CC(=O)N(c2ccccc2)C1=O	inactive: 0.562%	
Cc1ccccc1C(=O)N1CCN(c2ccc(NC(=O)c3ccco3)cc2Cl)CC1		inconclusive: 22.4 µM [inhibitor, single point]
O=C(CN1CCN(c2ccc(O)cc2)CC1)NC(=O)NCc1ccco1		inconclusive: 79.4 µM [inhibitor, partial curve, poor fit]
Cc1oc2c(CN3CCCC3)c(O)ccc2c(=O)c1-c1ccc(Br)cc1		inconclusive: 89.1 µM [inhibitor, single point]
C=C1C(=O)O[C@@H]2[C@H]1[C@@H](OC(=O)/C(C)=C/C)C/C(C)=C\C(=O)/C=C(\C)[C@@H]2O		inconclusive: 14.1 µM [inhibitor, full curve, poor fit]
O=[N+]([O-])c1cc2c(cc1CN1CCN(c3ccc(F)cc3)CC1)OCO2		inconclusive: 14.1 µM [inhibitor, full curve, poor fit]
NC(=O)NC(=O)CC1S/C(=N/N=C2\CSC(=O)N2)NC1=O (stereo unspecified)		inconclusive: 15.8 µM [inhibitor, partial curve, poor fit]

Structure (SMILES)	activity, negative = inhibition	Potency
COc1ccccc1C(=O)Oc1cc(N)n(S(=O)(=O)c2ccc(C)cc2)n1		inconclusive: 28.2 µM [inhibitor, partial curve, poor fit]
CC(C)C(NC(=O)OCc1ccccc1)C(=O)OCC(=O)NC1CC1 (stereo unspecified)	inactive: 25.1%	
CCOC(=O)c1c(-c2ccccc2)csc1NC(=O)CSc1nncs1		inconclusive: 112 µM [inhibitor, partial curve, poor fit]
Cc1cc(C(=O)COC(=O)/C=C/c2ccco2)c(C)n1C		inconclusive: 50.1 µM [inhibitor, partial curve]
Cc1ccc(C(=O)N/C(=C\c2cccc([N+](=O)[O-])c2)C(=O)OCN2C(=O)c3ccccc3C2=O)cc1		inconclusive: 89.1 µM [inhibitor, partial curve]
COc1ccc(NS(=O)(=O)c2ccc(-c3coc(C)n3)cc2)cc1		inconclusive: 89.1 µM [inhibitor, single point]
COc1ccc(NC(=O)CSCC(=O)N2c3ccccc3CCc3ccccc32)cc1		inconclusive: 39.8 µM [inhibitor, single point]
CNC(=S)N/N=C/c1cc(Br)cc(Br)c1O	inactive: 2.19%	
COc1ccc(N=Cc2c[nH][nH]c2=O)cc1		inconclusive: 39.8 µM [inhibitor, single point]
COc1ccc(CNC(=O)COC(=O)CN2C(=O)C3CC=CCC3C2=O)cc1 (stereo unspecified)	inactive: -12.9%	
Cc1cccc(CS(=O)(=O)c2ncc(Cl)c(C(=O)Nc3nnc(C(C)C)s3)n2)c1		inconclusive: 25.1 µM [inhibitor, single point] and inconclusive: 28.2 µM [inhibitor, single point]
O=C(CS(=O)(=O)Cc1ccccc1)NCc1ccco1		inconclusive: 14.1 µM [inhibitor, full curve, poor fit]
Cc1cccc(C)c1OCCOC(=O)c1n[nH]c2ccccc12		inconclusive: 28.2 µM [inhibitor, partial curve, poor fit]
COc1ccc(NC(=O)C(NS(=O)(=O)c2cccc3nsnc23)C(C)C)cc1 (stereo unspecified)	inactive: 13.9%	
NC(=O)CC(c1ccccc1)c1ccc2c(c1)OCO2 (stereo unspecified)	inactive: 113%	
O=C(NC1CCSC1=O)c1cccc(C(=O)NC2CCSC2=O)c1 (stereo unspecified)		inconclusive: 50.1 µM [inhibitor, partial curve, poor fit]
O=C(Cn1c(=O)oc2cc(S(=O)(=O)NCc3ccccc3)ccc21)Nc1cccc(F)c1		inconclusive: 79.4 µM [inhibitor, partial curve]
N#C/C(C(=O)N1CCCCC1)=C1/N=C(NC(=O)c2ccc(F)cc2)c2ccccc21		inconclusive: 12.6 µM [inhibitor, single point]
N#Cc1c(N)nc2c3c(sc(=N)c2c1N)NC(=O)CC3c1c(F)cccc1Cl (stereo unspecified)	inactive: 26.5%	
COC(=O)c1cccc(Cn2c(Cl)c(/C=N/NC(=O)c3ccccc3Cl)sc2=O)c1		inconclusive: 25.1 µM [inhibitor, single point]
